Assay results reported in the M2OR odorant receptor database.
The entries are a selection whose mix differs from that of the whole data set. Calls are pooled over several reports, among them a noisy single-well screen. Some of the results follow.

Experiments:
Conditions in all cases: stereoisomer not certain
OR10S1 (Homo sapiens) = target: T1, OR10S1 (Homo sapiens) (UniProt Q8NGN2)
T1 sequence (whole entry): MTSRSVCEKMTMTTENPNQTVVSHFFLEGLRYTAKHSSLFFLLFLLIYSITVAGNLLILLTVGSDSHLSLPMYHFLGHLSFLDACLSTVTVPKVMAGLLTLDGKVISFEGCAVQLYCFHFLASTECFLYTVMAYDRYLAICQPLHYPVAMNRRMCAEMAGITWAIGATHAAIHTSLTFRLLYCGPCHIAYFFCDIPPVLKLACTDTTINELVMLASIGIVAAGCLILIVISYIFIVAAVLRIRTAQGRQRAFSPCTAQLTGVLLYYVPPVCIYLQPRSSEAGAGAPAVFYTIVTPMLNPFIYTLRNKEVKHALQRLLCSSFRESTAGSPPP
How it was run: (§1)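 Values were gathered from published papers (main text and supplementary material), with extra details requested from the original authors when needed, and checked for typos and inconsistencies. Each receptor–molecule pair is called responsive (active) if the original authors judged the measured signal statistically different from baseline, and non-responsive (inactive) otherwise. Assay methods varied by source, often transient mammalian cell-line luciferase assays. Recorded details include cell line, G-protein, co-transfected protein and tags.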

OR10K1 (Homo sapiens) = target: T2, OR10K1 (Homo sapiens) (UniProt Q8NGX5)
T2 sequence (whole entry): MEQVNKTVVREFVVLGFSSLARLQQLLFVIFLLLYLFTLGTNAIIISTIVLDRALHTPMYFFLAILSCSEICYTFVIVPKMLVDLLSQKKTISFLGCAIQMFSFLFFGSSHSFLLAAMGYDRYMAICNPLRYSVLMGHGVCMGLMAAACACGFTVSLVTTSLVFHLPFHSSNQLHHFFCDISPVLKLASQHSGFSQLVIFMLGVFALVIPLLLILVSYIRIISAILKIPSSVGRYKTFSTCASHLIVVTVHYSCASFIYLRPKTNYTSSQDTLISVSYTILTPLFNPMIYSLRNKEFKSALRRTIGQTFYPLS
How it was run: as §1

OR10K2 (Homo sapiens) = target: T3, OR10K2 (Homo sapiens) (UniProt Q6IF99)
T3 sequence (whole entry): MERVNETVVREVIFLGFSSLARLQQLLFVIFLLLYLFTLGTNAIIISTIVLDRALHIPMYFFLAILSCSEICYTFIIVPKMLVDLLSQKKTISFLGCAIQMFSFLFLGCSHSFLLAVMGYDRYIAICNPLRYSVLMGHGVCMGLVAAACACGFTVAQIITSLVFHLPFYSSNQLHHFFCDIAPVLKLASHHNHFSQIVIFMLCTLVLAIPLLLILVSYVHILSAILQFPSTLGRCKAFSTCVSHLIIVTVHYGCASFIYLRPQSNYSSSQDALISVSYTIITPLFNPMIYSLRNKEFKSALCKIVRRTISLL
How it was run: as §1

OR10T2 (Homo sapiens) = target: T4, OR10T2 (Homo sapiens) (UniProt Q8NGX3)
T4 sequence (whole entry): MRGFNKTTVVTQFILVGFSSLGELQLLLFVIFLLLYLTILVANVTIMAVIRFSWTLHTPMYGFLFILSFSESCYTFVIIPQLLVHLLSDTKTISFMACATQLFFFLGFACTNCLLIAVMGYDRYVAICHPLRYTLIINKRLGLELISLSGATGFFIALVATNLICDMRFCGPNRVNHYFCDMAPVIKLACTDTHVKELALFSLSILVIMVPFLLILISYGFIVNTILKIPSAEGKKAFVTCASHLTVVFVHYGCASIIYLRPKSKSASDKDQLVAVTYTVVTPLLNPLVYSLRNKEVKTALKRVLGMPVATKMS
How it was run: as §1

OR10X1 (Homo sapiens) = target: T5, OR10X1 (Homo sapiens) (UniProt Q8NGY0)
T5 sequence (whole entry): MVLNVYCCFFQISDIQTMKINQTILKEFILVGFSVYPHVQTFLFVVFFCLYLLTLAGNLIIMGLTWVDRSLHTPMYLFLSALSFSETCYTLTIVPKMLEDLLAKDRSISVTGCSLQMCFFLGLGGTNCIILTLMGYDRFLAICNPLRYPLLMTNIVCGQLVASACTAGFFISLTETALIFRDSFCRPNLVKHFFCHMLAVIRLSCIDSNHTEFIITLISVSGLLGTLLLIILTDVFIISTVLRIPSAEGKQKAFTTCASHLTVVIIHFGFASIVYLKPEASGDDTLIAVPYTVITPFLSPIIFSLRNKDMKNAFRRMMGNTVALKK
How it was run: as §1

OR10Z1 (Homo sapiens) = target: T6, OR10Z1 (Homo sapiens) (UniProt Q8NGY1)
T6 sequence (whole entry): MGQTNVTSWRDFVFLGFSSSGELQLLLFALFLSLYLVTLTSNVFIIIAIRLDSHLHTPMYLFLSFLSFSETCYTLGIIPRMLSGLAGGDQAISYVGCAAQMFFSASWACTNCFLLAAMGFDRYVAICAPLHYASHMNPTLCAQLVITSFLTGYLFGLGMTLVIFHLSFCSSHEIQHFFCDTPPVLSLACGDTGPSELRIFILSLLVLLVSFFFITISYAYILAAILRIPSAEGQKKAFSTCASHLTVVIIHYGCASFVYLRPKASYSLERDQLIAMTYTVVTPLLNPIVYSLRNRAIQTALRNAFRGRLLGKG
How it was run: as §1

Measured: odorant receptor agonist call

CC(C)(O)CCCC1=CCC(C=O)CC1 (configuration not stated)
inactive: OR10S1 (Homo sapiens)

CC1=NC(C)SC1C (configuration not stated)
not listed: OR10S1 (Homo sapiens)
inactive: all other assays above

CC(=O)OCC=C(C)CCC=C(C)C
not listed: OR10S1 (Homo sapiens)
inactive: all other assays above

COc1ccccc1O
not listed: OR10S1 (Homo sapiens)
inactive: all other assays above

C=CCc1ccc(O)c(OC)c1
inactive: OR10S1 (Homo sapiens)

CCCCCCCOC(C)=O
not listed: OR10S1 (Homo sapiens)
inactive: all other assays above

CC1=CCC(C(C)(C)O)CC1 (configuration not stated)
not listed: OR10S1 (Homo sapiens)
inactive: all other assays above

CC=Cc1ccc(O)c(OC)c1
not listed: OR10S1 (Homo sapiens)
inactive: all other assays above

O=C1CCCCCCCCCCCCCCO1
not listed: OR10S1 (Homo sapiens)
inactive: all other assays above
